Test results published in the supplement of paper PMC10849652.
This is one part of the list.

Sequences of proteins named here, by UniProt entry; tags and fusion partners are left off. A change or cut given only in a name is not applied to a line headed by its entry.
UniProt Q8N3D4: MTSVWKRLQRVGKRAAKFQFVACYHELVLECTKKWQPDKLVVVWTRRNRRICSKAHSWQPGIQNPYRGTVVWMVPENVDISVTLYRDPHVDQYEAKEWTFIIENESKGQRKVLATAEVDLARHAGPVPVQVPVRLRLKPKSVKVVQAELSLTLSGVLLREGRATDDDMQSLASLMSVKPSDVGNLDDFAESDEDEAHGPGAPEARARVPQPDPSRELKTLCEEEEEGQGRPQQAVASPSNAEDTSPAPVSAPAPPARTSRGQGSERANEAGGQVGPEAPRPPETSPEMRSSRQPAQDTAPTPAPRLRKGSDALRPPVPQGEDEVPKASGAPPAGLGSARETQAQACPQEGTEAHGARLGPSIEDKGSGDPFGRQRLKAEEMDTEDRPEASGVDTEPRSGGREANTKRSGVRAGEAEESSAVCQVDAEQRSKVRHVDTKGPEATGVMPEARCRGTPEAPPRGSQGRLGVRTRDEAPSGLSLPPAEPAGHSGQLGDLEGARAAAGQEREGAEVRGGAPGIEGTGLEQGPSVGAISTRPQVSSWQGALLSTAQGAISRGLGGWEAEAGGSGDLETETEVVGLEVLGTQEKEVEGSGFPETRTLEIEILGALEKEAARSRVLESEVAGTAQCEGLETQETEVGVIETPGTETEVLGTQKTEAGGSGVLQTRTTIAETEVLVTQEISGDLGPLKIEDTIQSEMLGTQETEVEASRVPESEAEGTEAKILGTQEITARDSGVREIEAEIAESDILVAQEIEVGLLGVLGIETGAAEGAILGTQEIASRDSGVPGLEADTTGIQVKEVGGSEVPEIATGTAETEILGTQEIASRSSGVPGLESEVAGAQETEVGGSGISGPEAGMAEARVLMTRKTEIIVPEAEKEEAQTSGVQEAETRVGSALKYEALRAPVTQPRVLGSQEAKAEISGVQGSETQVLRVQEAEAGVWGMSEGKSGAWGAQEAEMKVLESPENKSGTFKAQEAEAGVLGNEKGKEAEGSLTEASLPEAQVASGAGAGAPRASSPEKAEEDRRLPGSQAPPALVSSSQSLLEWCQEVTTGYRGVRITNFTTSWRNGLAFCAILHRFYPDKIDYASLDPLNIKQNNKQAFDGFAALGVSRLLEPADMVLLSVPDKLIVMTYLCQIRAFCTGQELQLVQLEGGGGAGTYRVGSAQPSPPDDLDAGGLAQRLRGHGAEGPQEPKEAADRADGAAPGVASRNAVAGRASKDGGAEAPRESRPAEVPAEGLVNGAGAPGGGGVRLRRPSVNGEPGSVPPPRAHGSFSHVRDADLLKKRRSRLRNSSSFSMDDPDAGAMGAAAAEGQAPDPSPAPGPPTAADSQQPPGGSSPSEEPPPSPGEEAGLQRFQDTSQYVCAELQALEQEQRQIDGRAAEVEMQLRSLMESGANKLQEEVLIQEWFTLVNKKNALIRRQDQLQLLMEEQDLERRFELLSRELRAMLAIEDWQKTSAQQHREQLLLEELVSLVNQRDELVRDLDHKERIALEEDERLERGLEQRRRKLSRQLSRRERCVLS
UniProt Q96DC8: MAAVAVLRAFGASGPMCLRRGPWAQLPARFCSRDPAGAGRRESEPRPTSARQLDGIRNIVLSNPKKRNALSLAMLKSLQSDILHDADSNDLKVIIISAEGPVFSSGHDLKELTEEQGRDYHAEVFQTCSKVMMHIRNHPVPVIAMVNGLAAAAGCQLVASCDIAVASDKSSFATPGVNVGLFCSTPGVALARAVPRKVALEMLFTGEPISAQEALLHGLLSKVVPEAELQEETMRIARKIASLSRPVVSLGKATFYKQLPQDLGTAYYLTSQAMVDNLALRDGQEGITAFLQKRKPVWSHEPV
UniProt Q92611: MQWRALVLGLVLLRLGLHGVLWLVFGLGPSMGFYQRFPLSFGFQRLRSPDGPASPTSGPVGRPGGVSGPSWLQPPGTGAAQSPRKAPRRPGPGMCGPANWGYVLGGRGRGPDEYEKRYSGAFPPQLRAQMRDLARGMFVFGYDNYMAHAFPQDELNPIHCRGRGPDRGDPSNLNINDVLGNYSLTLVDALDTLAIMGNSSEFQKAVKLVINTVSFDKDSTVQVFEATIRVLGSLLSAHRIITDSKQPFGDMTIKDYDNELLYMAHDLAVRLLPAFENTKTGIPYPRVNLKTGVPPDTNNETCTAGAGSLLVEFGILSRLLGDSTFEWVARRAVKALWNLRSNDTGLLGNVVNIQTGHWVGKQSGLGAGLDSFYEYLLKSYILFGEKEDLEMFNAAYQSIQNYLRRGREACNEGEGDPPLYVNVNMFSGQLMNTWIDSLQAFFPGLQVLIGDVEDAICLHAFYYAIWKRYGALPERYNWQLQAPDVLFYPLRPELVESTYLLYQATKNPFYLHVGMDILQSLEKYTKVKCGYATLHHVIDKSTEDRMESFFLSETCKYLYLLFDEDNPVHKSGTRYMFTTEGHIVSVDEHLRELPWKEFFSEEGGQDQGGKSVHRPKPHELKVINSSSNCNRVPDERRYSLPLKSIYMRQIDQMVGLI
UniProt Q66K89: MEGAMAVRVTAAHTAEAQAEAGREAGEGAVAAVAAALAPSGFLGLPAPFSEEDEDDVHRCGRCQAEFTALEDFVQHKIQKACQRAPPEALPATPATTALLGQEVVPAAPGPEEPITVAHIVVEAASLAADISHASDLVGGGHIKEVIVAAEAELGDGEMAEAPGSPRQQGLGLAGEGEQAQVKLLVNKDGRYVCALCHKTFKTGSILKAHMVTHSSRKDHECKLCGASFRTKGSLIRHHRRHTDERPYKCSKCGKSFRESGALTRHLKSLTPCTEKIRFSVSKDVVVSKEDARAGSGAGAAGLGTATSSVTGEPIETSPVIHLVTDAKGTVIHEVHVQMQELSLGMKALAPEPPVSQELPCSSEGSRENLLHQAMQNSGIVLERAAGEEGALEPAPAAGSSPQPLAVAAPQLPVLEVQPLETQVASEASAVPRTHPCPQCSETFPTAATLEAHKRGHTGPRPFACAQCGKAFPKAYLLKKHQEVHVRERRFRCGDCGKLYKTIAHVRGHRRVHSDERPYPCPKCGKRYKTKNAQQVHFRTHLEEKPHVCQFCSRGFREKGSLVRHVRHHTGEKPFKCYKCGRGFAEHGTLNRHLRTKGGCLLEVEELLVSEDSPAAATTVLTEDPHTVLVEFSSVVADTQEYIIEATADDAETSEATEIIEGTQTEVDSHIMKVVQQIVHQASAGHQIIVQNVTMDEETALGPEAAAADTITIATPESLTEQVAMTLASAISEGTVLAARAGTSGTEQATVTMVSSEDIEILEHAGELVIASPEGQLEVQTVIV
UniProt P51808: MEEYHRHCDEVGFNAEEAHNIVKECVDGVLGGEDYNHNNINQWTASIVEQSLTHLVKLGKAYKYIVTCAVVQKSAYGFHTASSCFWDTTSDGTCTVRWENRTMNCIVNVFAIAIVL
UniProt Q9P2X0: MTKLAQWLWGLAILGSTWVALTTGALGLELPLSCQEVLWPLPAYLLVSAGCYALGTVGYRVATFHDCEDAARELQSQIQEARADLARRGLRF
UniProt Q96G04: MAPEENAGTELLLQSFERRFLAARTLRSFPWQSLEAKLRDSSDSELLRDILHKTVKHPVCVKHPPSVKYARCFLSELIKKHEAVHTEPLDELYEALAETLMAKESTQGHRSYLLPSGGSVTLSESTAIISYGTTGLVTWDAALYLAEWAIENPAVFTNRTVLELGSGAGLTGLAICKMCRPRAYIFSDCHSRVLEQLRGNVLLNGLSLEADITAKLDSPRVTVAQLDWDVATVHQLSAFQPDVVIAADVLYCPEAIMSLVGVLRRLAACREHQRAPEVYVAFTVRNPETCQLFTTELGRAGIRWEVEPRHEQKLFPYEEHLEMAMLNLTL
UniProt Q8N7B9: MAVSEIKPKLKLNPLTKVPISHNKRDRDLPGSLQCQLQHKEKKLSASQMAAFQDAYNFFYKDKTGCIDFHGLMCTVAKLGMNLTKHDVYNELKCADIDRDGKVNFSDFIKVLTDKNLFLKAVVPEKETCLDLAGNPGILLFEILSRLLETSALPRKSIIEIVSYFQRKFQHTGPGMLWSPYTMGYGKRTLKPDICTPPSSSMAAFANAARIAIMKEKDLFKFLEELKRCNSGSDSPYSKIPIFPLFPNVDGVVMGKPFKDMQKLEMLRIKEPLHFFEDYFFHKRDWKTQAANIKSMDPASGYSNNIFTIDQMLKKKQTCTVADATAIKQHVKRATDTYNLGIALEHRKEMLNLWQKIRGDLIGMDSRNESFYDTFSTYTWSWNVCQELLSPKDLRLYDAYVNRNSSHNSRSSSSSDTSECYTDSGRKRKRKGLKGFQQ
UniProt Q9BV94: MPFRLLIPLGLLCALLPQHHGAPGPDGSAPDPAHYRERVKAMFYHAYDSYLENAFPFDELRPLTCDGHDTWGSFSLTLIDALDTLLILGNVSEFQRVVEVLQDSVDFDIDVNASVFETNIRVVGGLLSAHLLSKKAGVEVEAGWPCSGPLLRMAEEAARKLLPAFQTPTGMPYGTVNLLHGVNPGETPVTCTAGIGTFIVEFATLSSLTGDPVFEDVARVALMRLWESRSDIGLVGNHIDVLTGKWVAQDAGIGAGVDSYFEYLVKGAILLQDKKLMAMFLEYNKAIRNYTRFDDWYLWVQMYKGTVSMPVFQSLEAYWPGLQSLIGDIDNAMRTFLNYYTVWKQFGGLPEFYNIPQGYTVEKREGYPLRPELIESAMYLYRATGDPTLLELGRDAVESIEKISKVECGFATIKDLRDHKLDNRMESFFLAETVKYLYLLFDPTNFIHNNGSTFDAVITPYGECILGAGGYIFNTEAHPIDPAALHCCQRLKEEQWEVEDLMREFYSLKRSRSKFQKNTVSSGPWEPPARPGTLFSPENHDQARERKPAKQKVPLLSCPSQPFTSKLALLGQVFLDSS
UniProt Q9UII6: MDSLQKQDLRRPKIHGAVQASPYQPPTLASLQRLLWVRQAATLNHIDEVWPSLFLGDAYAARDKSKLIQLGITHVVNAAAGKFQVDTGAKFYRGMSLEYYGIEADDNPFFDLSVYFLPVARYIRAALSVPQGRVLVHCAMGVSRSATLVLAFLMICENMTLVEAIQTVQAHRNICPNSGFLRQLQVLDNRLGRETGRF
UniProt Q5VUJ9: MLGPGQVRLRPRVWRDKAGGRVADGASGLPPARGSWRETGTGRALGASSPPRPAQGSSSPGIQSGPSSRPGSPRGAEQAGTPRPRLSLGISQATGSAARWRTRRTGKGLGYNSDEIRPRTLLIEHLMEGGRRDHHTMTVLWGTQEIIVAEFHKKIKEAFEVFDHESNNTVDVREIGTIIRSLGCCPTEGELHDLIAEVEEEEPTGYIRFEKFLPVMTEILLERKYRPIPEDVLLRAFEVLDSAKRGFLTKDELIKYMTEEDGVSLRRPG
UniProt Q8NBA8: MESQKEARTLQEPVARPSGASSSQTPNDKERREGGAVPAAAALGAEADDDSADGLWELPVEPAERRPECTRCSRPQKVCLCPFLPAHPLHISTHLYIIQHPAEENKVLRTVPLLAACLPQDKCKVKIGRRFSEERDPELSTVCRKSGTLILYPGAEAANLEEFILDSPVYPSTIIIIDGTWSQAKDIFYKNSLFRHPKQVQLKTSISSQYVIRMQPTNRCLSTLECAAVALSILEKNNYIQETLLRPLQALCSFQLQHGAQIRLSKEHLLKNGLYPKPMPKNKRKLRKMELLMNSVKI
UniProt Q6UX65: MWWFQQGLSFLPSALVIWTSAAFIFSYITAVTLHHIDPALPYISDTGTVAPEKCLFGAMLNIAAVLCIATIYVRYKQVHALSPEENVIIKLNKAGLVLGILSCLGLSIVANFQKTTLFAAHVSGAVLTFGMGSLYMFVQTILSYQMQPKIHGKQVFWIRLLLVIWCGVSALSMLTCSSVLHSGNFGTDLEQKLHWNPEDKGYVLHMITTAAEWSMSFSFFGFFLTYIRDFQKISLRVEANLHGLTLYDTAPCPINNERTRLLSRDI
UniProt Q9NRW4: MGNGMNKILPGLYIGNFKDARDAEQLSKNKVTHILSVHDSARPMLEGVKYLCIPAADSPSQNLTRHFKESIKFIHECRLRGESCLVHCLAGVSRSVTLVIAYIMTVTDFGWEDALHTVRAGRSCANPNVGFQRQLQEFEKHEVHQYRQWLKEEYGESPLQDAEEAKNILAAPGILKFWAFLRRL
UniProt Q16610: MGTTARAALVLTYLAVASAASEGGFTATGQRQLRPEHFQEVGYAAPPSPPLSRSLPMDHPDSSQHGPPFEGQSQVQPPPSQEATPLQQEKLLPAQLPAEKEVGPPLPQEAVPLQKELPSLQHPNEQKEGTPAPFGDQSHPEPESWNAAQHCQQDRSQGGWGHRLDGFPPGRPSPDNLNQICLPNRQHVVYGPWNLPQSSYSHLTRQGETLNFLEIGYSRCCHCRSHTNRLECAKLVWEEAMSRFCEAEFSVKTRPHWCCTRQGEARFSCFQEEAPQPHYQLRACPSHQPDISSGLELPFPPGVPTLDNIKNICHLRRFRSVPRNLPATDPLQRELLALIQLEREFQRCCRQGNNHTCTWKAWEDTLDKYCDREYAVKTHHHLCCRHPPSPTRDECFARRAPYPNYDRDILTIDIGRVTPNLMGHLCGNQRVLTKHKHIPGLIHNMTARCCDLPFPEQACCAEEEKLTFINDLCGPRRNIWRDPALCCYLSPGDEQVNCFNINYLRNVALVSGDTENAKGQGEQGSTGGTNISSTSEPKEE

Experiments:
Test in all cases: log2 fold change, soluble protein after heating vs DMSO (PISA); higher = thermal stabilisation; K562 lysate, 10 uM; active = over 0.2 and 3.5 SD of the protein, either way, in both replicates (recomputed)
erlotinib = compound: C#Cc1cccc(Nc2ncnc3cc(OCCOC)c(OCCOC)cc23)c1 [erlotinib]
Outline: (§1)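 Thermal stability, expressed as log-two fold change relative to solvent controls, is given from duplicates. Crude K562 extract in PBS pH 7.4 with 1 mM MgCl2, at 1 mg/mL protein, was treated with 10 μM compound for 30 min and heated in aliquots for 3 min across 48°C-58°C. After pooling, adjustment to 0.5% NP-40 at 4°C and centrifugation at 21,000xg for 90 min, supernatant protein was measured by TMTpro 16plex LC-MS/MS with channel sums equalised.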

[1] = compound: C/C(=N\NC(=O)C1=CC(=CC=C1)S(=O)(=O)N2CCOCC2)/C3=C(C=CC(=C3)Cl)O
Outline: as §1

[2] = compound: C1=CC(=CC=C1C2=NC3=C(N2)C=C(C=C3)C(=O)N)OC4=CC=C(C=C4)Cl
Outline: as §1

[3] = compound: C1=CC2=C(C=CC(=C2)/C=C\3/C(=O)NC(=NCC4=CC=CS4)S3)N=C1
Outline: as §1

[4] = compound: C1=CC2=NC=CN=C2C=C1/C=C/3\C(=O)NC(=O)S3
Outline: as §1

[5] = compound: C1=CC=C(C=C1)C2=NC(=C(N2)C3=CC=NC=C3)C4=CC(=C(C=C4)Cl)O
Outline: as §1

[6] = compound: C1=CC=C2C(=C1)C3=NNC4=CC=CC(=C43)C2=O
Outline: as §1

[7] = compound: C1CCN(C1)C(=O)NC2=CC=CC(=C2)NC3=NC=C(C(=N3)NCCC4=CN=CN4)Br
Outline: as §1

[8] = compound: C1CN(CCC1(CC2=CC=C(C=C2)Cl)N)C3=NC=NC4=C3C=CN4
Outline: as §1

IRAK-1-4 Inhibitor I = compound: C1COCCN1CCN2C3=CC=CC=C3N=C2NC(=O)C4=CC(=CC=C4)[N+](=O)[O-] [IRAK-1-4 Inhibitor I]
Outline: as §1

Measured: log2 fold change

EHBP1L1 (UniProt Q8N3D4)
inactive: erlotinib 0.015 | [1] -0.021 | [2] -0.037 | [3] 0.051 | [4] -0.003 | [5] 0.016 | [6] -0.059 | [7] 0 | [8] 0.031 | IRAK-1-4 Inhibitor I -0.006

ECHDC3 (UniProt Q96DC8)
inactive: erlotinib -0.058 | [1] 0.15 | [2] 0.028 | [3] -0.155 | [4] 0.071 | [5] 0.048 | [6] 0.019 | [7] 0.072 | [8] -0.051 | IRAK-1-4 Inhibitor I -0.048

EDEM1 (UniProt Q92611)
inactive: erlotinib 0.033 | [1] 0.11 | [2] -0.018 | [3] 0.167 | [4] 0.014 | [5] -0.018 | [6] -0.156 | [7] 0.026 | [8] -0.062 | IRAK-1-4 Inhibitor I 0.114

2 successive entries from above, for reference:
ECHDC3 (UniProt Q96DC8)
inactive: erlotinib -0.058 | [1] 0.15 | [2] 0.028 | [3] -0.155 | [4] 0.071 | [5] 0.048 | [6] 0.019 | [7] 0.072 | [8] -0.051 | IRAK-1-4 Inhibitor I -0.048

EDEM1 (UniProt Q92611)
inactive: erlotinib 0.033 | [1] 0.11 | [2] -0.018 | [3] 0.167 | [4] 0.014 | [5] -0.018 | [6] -0.156 | [7] 0.026 | [8] -0.062 | IRAK-1-4 Inhibitor I 0.114

(cont.)

E4F1 (UniProt Q66K89)
inactive: erlotinib -0.076 | [1] 0.169 | [2] -0.1 | [3] -0.019 | [4] 0.083 | [5] 0.076 | [6] 0.022 | IRAK-1-4 Inhibitor I 0.064

DYNLT3 (UniProt P51808)
inactive: erlotinib -0.029 | [2] -0.162

DVL1 (UniProt O14640)
inactive: [1] 0.264 | [3] -0.139 | [6] -0.138 | [7] -0.107 | [8] -0.077

DUSP19 (UniProt Q8WTR2)
inactive: erlotinib 0.08 | [2] 0.213 | [4] -0.028 | [5] 0.019 | IRAK-1-4 Inhibitor I 0.048

DPY30 (UniProt Q9C005)
inactive: erlotinib 0.079 | [1] -0.073 | [2] -0.113 | [3] -0.03 | [5] -0.025 | [6] -0.076 | [7] -0.026 | [8] -0.039 | IRAK-1-4 Inhibitor I -0.111

DYRK1A isoform 2 (UniProt Q13627)
inactive: erlotinib -0.064 | [2] -0.476 | [4] 0.247 | [5] 0.069 | IRAK-1-4 Inhibitor I -0.595

DUT (UniProt H0YMP1)
inactive: [4] -0.163

DZIP3 (UniProt Q86Y13)
inactive: erlotinib 0.215 | [2] -0.055

DUSP14 (UniProt O95147)
inactive: erlotinib 0.062 | [1] -0.062 | [2] -0.249 | [3] 0.085 | [6] -0.116 | [7] -0.092 | [8] 0.091

DPM3 isoform 2 (UniProt Q9P2X0)
inactive: erlotinib 0.005 | [2] -0.105 | [4] -0.024 | [5] -0.087 | IRAK-1-4 Inhibitor I -0.072

EEF2KMT (UniProt Q96G04)
inactive: erlotinib 0.078 | [1] 0.026 | [2] -0.015 | [3] 0.055 | [5] 0.082 | [6] 0 | [7] -0.076 | [8] 0.053 | IRAK-1-4 Inhibitor I -0.016

EEF1D isoform 3 (UniProt P29692)
inactive: erlotinib -0.013 | [2] -0.413 | [4] 0.137

DTL (UniProt Q9NZJ0)
inactive: erlotinib 0.106 | [1] -0.053 | [2] 0.012 | [3] 0.067 | [4] -0.029 | [5] -0.002 | [6] -0.072 | IRAK-1-4 Inhibitor I 0.006

DPF3 isoform 3 (UniProt Q92784)
inactive: [4] -0.142

EID1 (UniProt Q9Y6B2)
inactive: erlotinib 0.089 | [2] -0.172 | [5] 0.096 | [7] 0.064 | [8] 0.091 | IRAK-1-4 Inhibitor I 0.044

DYNC2LI1 (UniProt Q8TCX1)
inactive: [1] 0.01 | [3] 0.036 | [4] 0.097 | [5] 0.036 | [6] 0.006 | IRAK-1-4 Inhibitor I 0.068

DSTYK (UniProt Q6XUX3)
inactive: erlotinib -0.162 | [2] -0.124 | [5] -0.246 | IRAK-1-4 Inhibitor I 0.09

EFCAB7 (UniProt A8K855)
inactive: [5] 0.021 | IRAK-1-4 Inhibitor I -0.013

EFCAB3 (UniProt Q8N7B9)
inactive: erlotinib -0.046 | [2] -0.148

DSG3 (UniProt P32926)
inactive: [4] -0.008 | [5] -0.366 | IRAK-1-4 Inhibitor I -0.028

EHHADH (UniProt Q08426)
inactive: erlotinib -0.05 | [2] 0.08 | [4] -0.029 | [5] 0.007 | [7] 0.045 | [8] -0.106 | IRAK-1-4 Inhibitor I -0.09

EDEM2 (UniProt Q9BV94)
inactive: erlotinib 0.043 | [1] 0.059 | [2] 0.054 | [3] 0.066 | [5] -0.033 | [6] -0.132 | [7] 0.026 | [8] 0.031 | IRAK-1-4 Inhibitor I 0.007

DSCAML1 (UniProt Q8TD84)
inactive: [4] -0.031 | [5] 0.064 | IRAK-1-4 Inhibitor I 0.003

DUSP13 isoform 4 (UniProt Q9UII6)
inactive: erlotinib 0.384 | [2] -0.12

EFCAB2 isoform 2 (UniProt Q5VUJ9)
inactive: erlotinib -0.025 | [2] -0.122 | [5] -0.022 | [7] 0.036 | [8] 0.051 | IRAK-1-4 Inhibitor I 0.033

DYNC1I1 (UniProt O14576)
inactive: erlotinib -0.047 | [1] 0.392 | [2] 0.075 | [3] 0.251 | [6] -0.029 | [7] -0.014 | [8] -0.054

EGLN2 (UniProt Q96KS0)
inactive: [1] -0.124 | [3] 0.046 | [5] -0.069 | [6] -0.074 | [7] 0.104 | [8] -0.084 | IRAK-1-4 Inhibitor I -0.121

DTWD2 (UniProt Q8NBA8)
inactive: erlotinib 0.022 | [2] -0.021 | [4] 0.029 | [5] 0.016 | IRAK-1-4 Inhibitor I 0.032

DYNLRB1 (UniProt Q9NP97)
inactive: erlotinib -0.013 | [1] 0.068 | [2] 0.021 | [3] 0.033 | [4] -0.04 | [5] -0.041 | [6] 0.026 | [7] -0.045 | [8] 0.043 | IRAK-1-4 Inhibitor I -0.004

DPH3 (UniProt Q96FX2)
inactive: [1] 0.114 | [3] 0.065 | [4] -0.092 | [6] -0.08 | [7] 0.057 | [8] 0.026

DST isoform 3 (UniProt Q03001)
inactive: erlotinib 0.005 | [2] 0.181 | [4] -0.085 | [7] -0.034 | [8] -0.043

DPY19L3 (UniProt Q6ZPD9)
inactive: erlotinib -0.131 | [1] 0.007 | [2] -0.097 | [3] 0.101 | [4] 0.211 | [6] -0.2 | [7] 0.005 | [8] 0.008

DRAM2 (UniProt Q6UX65)
inactive: [4] -0.092

DTX2 (UniProt Q86UW9)
inactive: erlotinib 0.05 | [2] 0.055 | [4] -0.008

DUSP22 isoform 2 (UniProt Q9NRW4)
inactive: erlotinib -0.016 | [1] 0.157 | [2] 0.007 | [3] 0.075 | [4] 0.051 | [5] 0.035 | [6] 0.143 | IRAK-1-4 Inhibitor I -0.028

DRAP1 (UniProt E9PQX9)
inactive: [1] 0.026 | [3] 0.023 | [4] -0.051 | [6] -0.052 | [7] -0.052 | [8] -0.308

EEF1AKMT1 (UniProt Q8WVE0)
inactive: erlotinib -0.017 | [2] 0.134 | [4] 0.07 | [5] 0.087 | [7] -0.051 | [8] 0.426 | IRAK-1-4 Inhibitor I -0.042

EGFL7 (UniProt Q9UHF1)
inactive: [1] 0.098 | [3] -0.057 | [6] 0.073

DPYSL3 isoform 2 (UniProt Q14195)
inactive: [7] 0.107 | [8] -0.264

ECM1 isoform 2 (UniProt Q16610)
inactive: [5] -0.003 | IRAK-1-4 Inhibitor I -0.123
